Results on four molecules are retold here after patent US20210139592A1.

These are yes or no findings as the source states them, for the method shown. Binding calls can cover weak binding; strength is not graded here.

For test [1], the target named is human PD-L1 (human). Description: binding to wild-type PD-L1 in the site-directed mutagenesis mapping.
Test [2] deals with human PD-L1 (human). Description: ELISA, PD-L1 coated, anti-mouse IgG-HRP (FIG. 3A).

B1: mouse hybridoma anti-human PD-L1 antibody 1E12 (antibody, V domains shown)
VH: QVQLQQPGAELVKPGASVKLSCKASGYIFISFWIHWVKQRPGQGLEWIGNIDPSDSETHYNEKFRDKASLTVDKSSSTAYMQLSSLTSEDSAVYFCARLDGDYGRAYWGQGTLVTVSA
VL: NIVLTQSPASLAVSLGQRATISCRASESVDSFGNSFMHWYQQKPGQPPKLLIYLASNLESGVPARFSGSGSRTDFTLTIDPVEADDTATYYCQQNNEDPLTFGGGTKLEIKR
With B1, the binding entry in test [1] and in test [2] was “binds” in each case.

B2: mouse hybridoma anti-human PD-L1 antibody 3F11 (antibody, V domains shown)
VH: QVQLQQPGAELVKPGASVKLSCKASGYIFISFWIHWVKQRPGQGLEWIGNIDPSDSETHYNEKFRDKASLTVDKSSSTAYMQLSSLTSEDSAVYFCARLDGDYGRAYWGQGTLVTVSA
VL: NIALTQSPTSLAVSQGQRATISCRASESVDSNGNSFMHWYQQKPGQPPKLLIYLASNLESGVPARFSGSGSRTDFTLTIDPVEADDAATYYCQQNNDDPWTFGGGTKLEIKR
Take B2: the binding entry in test [1] and in test [2] was “binds” in each case.

B3: mouse hybridoma anti-human PD-L1 antibody 5E6 (antibody, V domains shown)
VH: EVQLVESGGGFVKPGGSRKLSCAASGFTFSDSGMHWVRQAPEKGLEWVAYISAGSYTIYYADIVKGRFTISRDSAKNTLFLQMTSLRSEDTAIYYCARGDWYFAVWGAGTTVTVSS
VL: DVLMTQTPLSLPVSLGDQASISCRSSQSLVHINGNTYLEWYLQKPGQSPKLLIYKVSNRFSGVPDRFSGSGSGTDFTLKISRVEPEDLGVYYCSQGSHVPWTFGGGTKVEIKR
With B3, the binding entry in test [1] and in test [2] was “binds” each time.

B4: mouse hybridoma anti-human PD-L1 antibody 3E10 (antibody, V domains shown)
VH: QVQLQQSGPELVKPGASVKISCKASGYAFSTSWINWLKQRPGEGLEWLGRIYPGDGDINYNGKFKDKATLTADKSSSTAHIQLNSLTSEDSAVYFCARSNHYYFDFWGQGTTLTVSS
VL: DVQMTQTTSSLSASLGDRVTINCRASEDIRTYLNWYQQKPDGTIKLLIYYTSRLHSGVPSRFSGSGSGTDYSLTISNLDQEDIATYFCQQVHTLPPWTFGGGTKLEIKR
With B4, the binding result in test [1] and in test [2] was “binds” each time.
